No constants are given. Whether binding was seen depends on the method and setting. Binding seen in cells or lysates may run through a third protein. Some results given as binding are weak or reduced against the parent protein; the word gives no strength. For some assays here: Sequences can lack the tags named with a protein.
Legend:
[1] = biological target: SMARCA4 (endogenous, HEK 293T) (human (endogenous in HEK 293T)) (UniProt P51532); test: co-IP; HEK 293T cells expressing Flag-tagged HNF1A; co-immunoprecipitation of SMARCA4 in the presence of benzonase
HA-tagged HNF1A, P20823 = biological target: T1, HA-tagged HNF1A, P20823; test: co-IP; reciprocal immunoprecipitations of tagged HNF1A and HNF1B in WT and SMARCA2/4 double-knockout HEK 293T cells (the knockout reduced HNF1A homo- and heterodimerization, not HNF1B homodimerization); conditions: remark: other sources report otherwise
T1 chain: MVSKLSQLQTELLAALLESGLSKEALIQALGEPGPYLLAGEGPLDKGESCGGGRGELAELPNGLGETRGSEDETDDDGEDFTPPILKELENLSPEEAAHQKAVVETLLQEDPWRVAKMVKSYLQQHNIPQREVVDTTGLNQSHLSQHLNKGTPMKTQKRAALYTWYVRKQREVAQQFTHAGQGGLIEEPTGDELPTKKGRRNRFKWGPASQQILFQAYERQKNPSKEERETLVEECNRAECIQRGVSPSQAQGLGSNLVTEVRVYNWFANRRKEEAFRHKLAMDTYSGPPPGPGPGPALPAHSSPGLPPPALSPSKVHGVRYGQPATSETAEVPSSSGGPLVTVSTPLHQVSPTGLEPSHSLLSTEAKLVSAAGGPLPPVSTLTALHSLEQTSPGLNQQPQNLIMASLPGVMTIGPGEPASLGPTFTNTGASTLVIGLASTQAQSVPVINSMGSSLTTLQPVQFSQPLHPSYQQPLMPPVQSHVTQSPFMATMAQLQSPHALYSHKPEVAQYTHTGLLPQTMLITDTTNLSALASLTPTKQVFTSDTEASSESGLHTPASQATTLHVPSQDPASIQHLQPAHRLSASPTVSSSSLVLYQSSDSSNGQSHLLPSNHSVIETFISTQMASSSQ

Chains of the proteins cited; added tags and fusions are not shown.
UniProt P51532: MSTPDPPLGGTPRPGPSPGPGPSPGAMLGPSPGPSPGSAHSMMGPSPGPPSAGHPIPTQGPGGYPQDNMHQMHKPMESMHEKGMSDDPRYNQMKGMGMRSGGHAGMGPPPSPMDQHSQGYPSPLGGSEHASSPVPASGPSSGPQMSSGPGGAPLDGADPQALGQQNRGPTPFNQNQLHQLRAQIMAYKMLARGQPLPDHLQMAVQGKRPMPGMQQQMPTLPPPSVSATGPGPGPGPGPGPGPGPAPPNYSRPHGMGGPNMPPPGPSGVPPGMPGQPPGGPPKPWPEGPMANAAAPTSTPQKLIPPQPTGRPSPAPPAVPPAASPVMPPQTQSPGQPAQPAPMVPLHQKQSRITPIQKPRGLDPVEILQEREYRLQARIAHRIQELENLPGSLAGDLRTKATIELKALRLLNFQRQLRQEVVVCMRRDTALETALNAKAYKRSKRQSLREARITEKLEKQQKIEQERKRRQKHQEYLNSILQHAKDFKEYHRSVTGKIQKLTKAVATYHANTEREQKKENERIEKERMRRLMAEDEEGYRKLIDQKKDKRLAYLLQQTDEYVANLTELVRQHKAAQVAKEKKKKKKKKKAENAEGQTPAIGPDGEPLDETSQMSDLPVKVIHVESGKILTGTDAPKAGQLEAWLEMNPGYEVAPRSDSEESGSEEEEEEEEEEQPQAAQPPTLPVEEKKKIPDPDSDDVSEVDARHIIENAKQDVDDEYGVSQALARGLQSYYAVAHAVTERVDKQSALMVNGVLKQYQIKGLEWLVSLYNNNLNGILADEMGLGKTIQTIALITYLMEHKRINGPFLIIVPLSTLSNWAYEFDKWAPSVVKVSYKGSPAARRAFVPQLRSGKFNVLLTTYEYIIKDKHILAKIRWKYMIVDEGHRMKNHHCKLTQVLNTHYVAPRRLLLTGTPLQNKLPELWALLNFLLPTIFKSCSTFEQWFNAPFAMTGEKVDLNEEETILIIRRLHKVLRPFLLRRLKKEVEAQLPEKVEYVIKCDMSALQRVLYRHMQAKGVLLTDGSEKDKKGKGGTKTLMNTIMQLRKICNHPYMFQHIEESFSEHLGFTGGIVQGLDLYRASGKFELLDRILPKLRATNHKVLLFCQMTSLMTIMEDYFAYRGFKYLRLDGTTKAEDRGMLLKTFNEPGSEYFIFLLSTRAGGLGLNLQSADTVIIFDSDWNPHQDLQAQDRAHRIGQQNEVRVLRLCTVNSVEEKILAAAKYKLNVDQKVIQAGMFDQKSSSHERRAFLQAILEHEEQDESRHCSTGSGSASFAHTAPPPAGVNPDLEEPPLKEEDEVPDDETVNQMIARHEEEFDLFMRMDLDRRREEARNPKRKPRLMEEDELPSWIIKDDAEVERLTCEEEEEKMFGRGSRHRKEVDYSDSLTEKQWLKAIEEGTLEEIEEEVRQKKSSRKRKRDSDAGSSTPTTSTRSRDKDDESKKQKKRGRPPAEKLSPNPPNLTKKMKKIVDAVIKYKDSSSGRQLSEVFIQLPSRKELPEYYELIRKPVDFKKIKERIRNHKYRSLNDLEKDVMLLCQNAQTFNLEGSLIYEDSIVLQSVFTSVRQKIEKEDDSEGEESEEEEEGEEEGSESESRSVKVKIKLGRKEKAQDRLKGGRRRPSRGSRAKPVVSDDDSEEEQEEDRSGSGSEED

With “Flag-tagged HNF1A (from UniProt P20823 1-631)” the binding [1] was “no binding (condition: with benzonase treatment)”.

B1: HA-tagged HNF1A, P20823 1-631 (protein)
chain: MVSKLSQLQTELLAALLESGLSKEALIQALGEPGPYLLAGEGPLDKGESCGGGRGELAELPNGLGETRGSEDETDDDGEDFTPPILKELENLSPEEAAHQKAVVETLLQEDPWRVAKMVKSYLQQHNIPQREVVDTTGLNQSHLSQHLNKGTPMKTQKRAALYTWYVRKQREVAQQFTHAGQGGLIEEPTGDELPTKKGRRNRFKWGPASQQILFQAYERQKNPSKEERETLVEECNRAECIQRGVSPSQAQGLGSNLVTEVRVYNWFANRRKEEAFRHKLAMDTYSGPPPGPGPGPALPAHSSPGLPPPALSPSKVHGVRYGQPATSETAEVPSSSGGPLVTVSTPLHQVSPTGLEPSHSLLSTEAKLVSAAGGPLPPVSTLTALHSLEQTSPGLNQQPQNLIMASLPGVMTIGPGEPASLGPTFTNTGASTLVIGLASTQAQSVPVINSMGSSLTTLQPVQFSQPLHPSYQQPLMPPVQSHVTQSPFMATMAQLQSPHALYSHKPEVAQYTHTGLLPQTMLITDTTNLSALASLTPTKQVFTSDTEASSESGLHTPASQATTLHVPSQDPASIQHLQPAHRLSASPTVSSSSLVLYQSSDSSNGQSHLLPSNHSVIETFISTQMASSSQ
With B1 the binding (HA-tagged HNF1A, P20823) was “binds”.
